The name of at least one read-out is uncertain.
Biological target: T1, OR7D4 S84N (Homo sapiens, UniProt Q8NG98, S84N)
T1 sequence (Q8NG98 1-312 S84N): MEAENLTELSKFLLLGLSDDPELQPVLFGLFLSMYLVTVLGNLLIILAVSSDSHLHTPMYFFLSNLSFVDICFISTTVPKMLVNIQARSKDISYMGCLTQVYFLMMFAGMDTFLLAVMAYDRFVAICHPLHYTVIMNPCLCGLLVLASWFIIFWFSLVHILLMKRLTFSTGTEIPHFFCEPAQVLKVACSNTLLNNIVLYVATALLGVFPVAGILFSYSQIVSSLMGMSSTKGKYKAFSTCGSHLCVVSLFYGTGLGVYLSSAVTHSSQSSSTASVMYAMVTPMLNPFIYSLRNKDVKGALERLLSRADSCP
Assay: Luciferase assay dose response, OR7D4 S84N
Type: cell-based
Conditions: ratio of EC50 values, S84N vs RT
Text: Heterologous expression of human odorant receptors. 423 human odorant receptors including 337 predicted functional receptors were cloned. Odorant receptors that contained the first 20 amino acid of human rhodopsin (see, e.g., Krautwurst, D., et al., Cell 95, 917-926 (1998); herein incorporated by reference in its entirety) in pCl (Promega) were expressed in the Hana3A cell line along with a short form of mRTP1, RTP1S, (M37 to the C-terminal end), which enhanced functional expression of the odorant receptors. For immunocytochemistry, cells were fixed, permeabilized and incubated with monoclonal anti-rhodopsin antibody, 4D2 (see, e.g., Laird, D. W., et al., Invest Opthalmol Vis Sci 29.419428 (1988); herein incorporated by reference in its entirety), followed by Cy3-conjugated donkey anti-mouse IgG (Jackson Immunologicals). […]
Luciferase assay and data analysis. […] Luminescence was measured using Wallac Victor 1420 (Perkin-Elmer). Normalized luciferase activity was calculated by the formula [luc(N)-luc(lowest)]/luc(highest)/RL (N) where luc(N)=luminescence of luciferase of a certain well; luc(lowest)=lowest luminescence of luciferase of a plate or a set of plates; luc(highest)=highest luminescence of luciferase of a plate or a set of plates; RL(N)=luminescence of Renilla luciferase of a certain well. Data was analyzed with Microsoft Excel and GraphPad Prism 4.

**Q.** With `C[C@@]12C=CC[C@H]1[C@@H]1CCC3=CC(=O)CC[C@]3(C)[C@H]1CC2` [androstadienone, androsta-4,16-dien-3-one] as the molecule, how does the “EC50 of OR7D4 S84N lower than that of the RT variant” value read?
**A.** ~20 times

Source: patent publication US8298781B2, “Compositions and methods for characterizing and regulating olfactory sensation” (Duke University, priority 2007, dated 2012)
